# Article PMC2946606
# The chains behind the UniProt entries cited, without tags or fusion partners. Where a name states a change or a piece, a line headed by the entry shows the natural chain unless it says otherwise. Residues count along the entry.
# UniProt Q92616, residues 840-1815: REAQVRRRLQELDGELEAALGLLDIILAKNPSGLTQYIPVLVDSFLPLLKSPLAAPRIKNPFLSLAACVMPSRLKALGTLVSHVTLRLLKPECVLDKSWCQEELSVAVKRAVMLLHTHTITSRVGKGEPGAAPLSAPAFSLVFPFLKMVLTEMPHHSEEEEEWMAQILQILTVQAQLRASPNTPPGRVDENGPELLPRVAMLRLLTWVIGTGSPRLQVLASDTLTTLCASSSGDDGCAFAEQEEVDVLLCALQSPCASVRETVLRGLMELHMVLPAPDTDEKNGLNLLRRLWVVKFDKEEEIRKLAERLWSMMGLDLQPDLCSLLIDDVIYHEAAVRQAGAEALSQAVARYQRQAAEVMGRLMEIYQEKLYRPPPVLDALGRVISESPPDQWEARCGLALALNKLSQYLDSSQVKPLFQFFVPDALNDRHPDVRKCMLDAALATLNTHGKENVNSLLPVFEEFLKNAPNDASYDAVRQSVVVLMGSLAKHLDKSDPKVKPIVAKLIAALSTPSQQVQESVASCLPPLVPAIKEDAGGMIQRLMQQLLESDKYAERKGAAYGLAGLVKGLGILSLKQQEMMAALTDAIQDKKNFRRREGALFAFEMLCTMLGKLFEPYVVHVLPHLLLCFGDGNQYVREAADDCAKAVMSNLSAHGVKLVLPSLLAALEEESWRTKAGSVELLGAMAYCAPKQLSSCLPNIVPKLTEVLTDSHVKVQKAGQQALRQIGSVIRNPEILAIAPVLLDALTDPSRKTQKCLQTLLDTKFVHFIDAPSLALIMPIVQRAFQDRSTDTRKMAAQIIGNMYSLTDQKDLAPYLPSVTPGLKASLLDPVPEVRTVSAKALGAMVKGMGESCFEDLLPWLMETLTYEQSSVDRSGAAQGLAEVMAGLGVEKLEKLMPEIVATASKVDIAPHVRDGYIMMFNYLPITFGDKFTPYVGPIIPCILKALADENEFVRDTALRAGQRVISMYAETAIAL
# UniProt Q63009: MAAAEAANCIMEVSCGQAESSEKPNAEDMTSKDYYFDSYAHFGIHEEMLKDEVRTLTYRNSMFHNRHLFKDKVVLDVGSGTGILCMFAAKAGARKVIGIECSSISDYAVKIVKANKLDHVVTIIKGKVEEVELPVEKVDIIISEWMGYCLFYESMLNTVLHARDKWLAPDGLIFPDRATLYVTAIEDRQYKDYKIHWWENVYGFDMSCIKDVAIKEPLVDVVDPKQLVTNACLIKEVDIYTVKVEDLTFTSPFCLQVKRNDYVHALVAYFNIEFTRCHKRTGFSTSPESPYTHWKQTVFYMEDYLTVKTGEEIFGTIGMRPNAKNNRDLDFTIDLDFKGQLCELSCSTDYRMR
# B1: Med24/TRAP100 in rat liver nuclear extract (protein, UniProt Q4V8B3 1-987)
# chain: MKVVNLKQAILQAWKERWSDYQWAINMKKFFPKGATWDILNLAEALLEQAMIGPSPNPLILSYLKYAISSQMVSYSSVLTAISKFDDFSRDLCVQALLDIMDMFCDRLSCHGKAEECIGLCRALLSALHWLLRCTAASAERLQEGLEAGSAVTGEKQLALCLQCLEKTLSSTKNRALLHIAKLEEASSWTAIEHCLLKLGEILANLSNPQLRSQAEHCGTLIRSIPTMLSVHSEQLHKTGFPTIHALILLEGTMNLTGEMQPLVEQLMMVKRMQHIPTPLFVLEIWKACFVGLIESPEGTQELKWTAFTYLKIPQVLVKLKKYFHGDKDFTEDVNCAFEFLLKLTPLLDKADQRCNCDCTNFLLQECNKQGLLSEASFASLVSKRTADRDPQLKSSENANIQPNPGLILRAEPTVTNILKTMDADHSKSPEGLLGVLGHMLSGKSLDLLLAAAAATGKLKSFARKFINLNEFTTHGSGESTKTASVRALLFDISFLMLCHVAQTYGSEVILSESSSGEEVPFFETWMQTCMPEEGKILNPDHPCFRPDSTKVESLVALLNNSSEMKLVQMKWHEACLSISAAILEILNAWENGVLAFESIQKITDNIKGKVCSLAVCAVAWLVAHVRMLGLDEREKSLQMIRQLAGPLYSENTLQFYNERVVIMNSILEHMCADVLQQTATQIKFPSTGVDTMPYWNLLPPKRPIKEVLTDIFAKVLEKGWVDSRSIHILDTLLHMGGVYWFCNNLIKELLKETRKEHTLRAVQLLYSIFCLDMQQVTLVLLGHILPGLLTDSSKWHSLMDPPGTALAKLAVWCALSSYSSHKGQASSRQKKRHREDIEDYISLFPVEDMQPSKLMRLLSSNEDDASILSSPTDRSMNSSLSASQLHTVNMRDPLNRVLANLFLLISSVLGSRTAGPHTQFVQWFMEECVDCLEQDSRGSILQFMPFTTVSELVKVSAMSSPKVVLAITDLSLPLGRQVAAKAIAAL
# B2: Med20 in rat liver nuclear extract (protein, UniProt Q5XIE9 1-212)
# chain: MGVTCVSQMPVAEGKSVQQTVELLTKKLEMLGAEKQGTFCVDCETYHTAASTLGSQGQAGKLMYVMHNSEYPLSCFALFENGPCLIADTNFDVLMVKLKGFFQSAKASKIETRGTRYQYCDFLVKVGTVTMGPSARGISVEVEYGPCVVASDCWSLLLEFLQSFLGSHTPGAPTVFGNRHDAVYGPADTMVQYMELFNKVRKQQQVPVAGIR
# B3: ZNRD1 (zinc ribbon domain-containing 1) in rat liver nuclear extract (protein, UniProt Q6MFY5 1-123)
# chain: MELARPCSNFQSDLDFCPDCGSVLPLPGVQDTVICPRCGFSIDVRDFGGKVVKTSVVFNKLGTVIPMSVDEGPESQGPVVDRRCSRCGHEGMAYYTRQMRSADEGQTVFYTCINCKFQEKEDS
# Biological target: GST-ΔPRIC295^840–1815 (F2) (human) (UniProt Q92616)
# Test: affinity purification with mass spectrometry; GST-ΔPRIC295^840–1815 (F2) as bait, rat liver nuclear extract; bound proteins on a 4–20% Tris-HCl gel, selected bands by MALDI-TOF; only the target purified
row,Molecule,binding
1,PRMT1 in rat liver nuclear extract (from UniProt Q63009 1-353) (enzyme),binds
2,B1,binds
3,B2,binds
4,B3,binds

# These are yes or no findings as the source states them, for the method shown. Binding seen in cells or lysates may run through a third protein. These calls come from enrichment with a bait or labelling near it, and not all partners need be listed.
